PubChem BioAssay AID743458, Peter MacCallum Cancer Centre, 2014
Shown is an unselected part of about 1,800 reagents. 732 of them (41%) were called active. 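Calls are per siRNA reagent; a gene was deemed confirmed only if most of its four siRNAs scored.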 Reagents against one gene are numbered here. Reagent sequences are not shown.

Test: 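Identify genes whose loss lifts vorinostat resistance in colon cancer cells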 (follow-up of hits)
Cells: human HCT116-VR colon cancer cells made resistant to vorinostat
Reagents: single siRNA or pool against human genes, 25 nM per single siRNA
Timing: about 72 h after transfection, including 24 h of drug
Treatment: vorinostat, 2.5 µM final, for 24 h
Read-out: 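Cell viability by fluorescence and apoptosis by caspase 3/7 luminescence under vorinostat, background-corrected, averaged across two plate copies and given as fold change versus mock transfection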
Scale: viability relative to mock: higher = more living cells than mock; caspase activity relative to mock: higher = more apoptosis than mock
Hit rule: 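An siRNA counts as active if classed as reduced viability or as caspase activation, otherwise inactive; a hit class needed wells that remained healthy in the absence of drug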

gene knocked down	reagent no.	viability relative to mock	caspase activity relative to mock	viability hit class	caspase hit class	call
MT3 (metallothionein 3)	1	0.45	4.46	reduced viability	caspase activation	active
MT3 (metallothionein 3)	2	0.98	1.37	no change	no change	inactive
MT3 (metallothionein 3)	3	0.76	1.09	no change	no change	inactive
MT3 (metallothionein 3)	4	0.54	1.78	reduced viability	no change	active
PFKL (phosphofructokinase, liver type)	1	0.78	1.48	no change	no change	inactive
PFKL (phosphofructokinase, liver type)	2	0.92	1.92	no change	no change	inactive
PFKL (phosphofructokinase, liver type)	3	0.76	5.55	no change	caspase activation	active
PFKL (phosphofructokinase, liver type)	4	0.82	2.31	no change	no change	inactive
SCUBE1 (signal peptide, CUB domain and EGF like domain containing 1)	1	0.83	1.06	no change	no change	inactive
SCUBE1 (signal peptide, CUB domain and EGF like domain containing 1)	2	0.46	3.46	reduced viability	caspase activation	active
SCUBE1 (signal peptide, CUB domain and EGF like domain containing 1)	3	0.52	1.77	reduced viability	no change	active
SCUBE1 (signal peptide, CUB domain and EGF like domain containing 1)	4	0.9	3.55	no change	caspase activation	active
ZNF490 (zinc finger protein 490)	1	1	0.96	no change	no change	inactive
ZNF490 (zinc finger protein 490)	2	0.9	1.06	no change	no change	inactive
ZNF490 (zinc finger protein 490)	3	1.05	1.02	no change	no change	inactive
ZNF490 (zinc finger protein 490)	4	0.17	1.87	reduced viability	no change	active
FN3KRP (fructosamine 3 kinase related protein)	1	0.75	1.48	no change	no change	inactive
FN3KRP (fructosamine 3 kinase related protein)	2	0.9	1.5	no change	no change	inactive
FN3KRP (fructosamine 3 kinase related protein)	3	0.94	2.34	no change	no change	inactive
FN3KRP (fructosamine 3 kinase related protein)	4	0.98	3.62	no change	caspase activation	active
SALL1 (spalt like transcription factor 1)	1	1.02	1.95	no change	no change	inactive
SALL1 (spalt like transcription factor 1)	2	0.86	2.83	no change	caspase activation	active
SALL1 (spalt like transcription factor 1)	3	0.4	0.94	reduced viability	no change	active
SALL1 (spalt like transcription factor 1)	4	0.76	1.5	no change	no change	inactive

Reprinted from the entries so far, 3 entries:
gene knocked down	reagent no.	viability relative to mock	caspase activity relative to mock	viability hit class	caspase hit class	call
PFKL (phosphofructokinase, liver type)	1	0.78	1.48	no change	no change	inactive
PFKL (phosphofructokinase, liver type)	2	0.92	1.92	no change	no change	inactive
PFKL (phosphofructokinase, liver type)	3	0.76	5.55	no change	caspase activation	active
